Test results from paper doi:10.1101/2023.06.05.543428.
Results are given in words; binding and its absence hold for the method and conditions named. Binding seen in cells or lysates may run through a third protein.

Protein sequences, listed by entry. Tags and fused reporters are not part of them. Lines headed by an entry give the natural chain unless they say otherwise; changes in a name come on top. Residues count along the entry.
UniProt Q9Y6K9, 2-329: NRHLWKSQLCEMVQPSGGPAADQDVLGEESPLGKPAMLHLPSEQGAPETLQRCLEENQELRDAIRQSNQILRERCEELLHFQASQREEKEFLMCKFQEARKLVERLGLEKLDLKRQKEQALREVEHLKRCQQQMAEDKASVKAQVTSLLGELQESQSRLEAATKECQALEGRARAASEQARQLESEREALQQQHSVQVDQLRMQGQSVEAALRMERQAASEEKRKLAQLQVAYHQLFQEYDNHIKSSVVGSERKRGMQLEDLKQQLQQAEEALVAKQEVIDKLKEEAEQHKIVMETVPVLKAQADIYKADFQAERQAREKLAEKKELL
UniProt Q96EP0, whole entry: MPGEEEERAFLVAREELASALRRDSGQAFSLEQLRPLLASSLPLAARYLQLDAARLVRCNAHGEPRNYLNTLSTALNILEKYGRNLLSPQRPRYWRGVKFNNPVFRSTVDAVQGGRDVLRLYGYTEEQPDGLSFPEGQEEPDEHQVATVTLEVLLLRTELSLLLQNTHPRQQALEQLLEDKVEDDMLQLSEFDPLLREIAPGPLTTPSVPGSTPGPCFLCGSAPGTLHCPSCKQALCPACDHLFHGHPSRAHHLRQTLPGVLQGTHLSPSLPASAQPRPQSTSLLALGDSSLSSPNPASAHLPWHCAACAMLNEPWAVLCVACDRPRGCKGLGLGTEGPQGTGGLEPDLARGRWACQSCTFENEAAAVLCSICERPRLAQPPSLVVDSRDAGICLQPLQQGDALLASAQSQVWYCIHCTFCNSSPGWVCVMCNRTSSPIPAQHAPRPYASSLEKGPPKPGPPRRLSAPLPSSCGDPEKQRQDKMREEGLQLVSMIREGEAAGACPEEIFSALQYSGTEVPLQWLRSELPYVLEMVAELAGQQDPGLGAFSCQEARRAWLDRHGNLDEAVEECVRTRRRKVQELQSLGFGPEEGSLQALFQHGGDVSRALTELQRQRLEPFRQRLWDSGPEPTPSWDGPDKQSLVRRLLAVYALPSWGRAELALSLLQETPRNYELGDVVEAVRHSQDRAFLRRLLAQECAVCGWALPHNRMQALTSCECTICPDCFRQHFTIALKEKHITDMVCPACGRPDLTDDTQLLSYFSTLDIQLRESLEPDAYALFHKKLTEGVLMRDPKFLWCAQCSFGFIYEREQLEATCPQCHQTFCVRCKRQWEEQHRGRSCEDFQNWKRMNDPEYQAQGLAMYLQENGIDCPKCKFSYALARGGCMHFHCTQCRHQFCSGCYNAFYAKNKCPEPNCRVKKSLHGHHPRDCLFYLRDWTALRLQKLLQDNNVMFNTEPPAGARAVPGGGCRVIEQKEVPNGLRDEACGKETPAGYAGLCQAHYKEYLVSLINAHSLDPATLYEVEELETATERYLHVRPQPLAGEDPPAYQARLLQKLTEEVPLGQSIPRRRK

Target: HA-tagged Q330X NEMO (human) (UniProt Q9Y6K9)
Assay: co-IP

**Q.** “endogenous p62/SQSTM1 (from UniProt Q13501 1-440)” was tested. Which binding did it give?
**A.** no binding

**Q.** “endogenous HOIP (from UniProt Q96EP0 1-1072)” was tested. Which binding did it give?
**A.** no binding
